Results published in publication PMC8231590.

Amino acid sequences for entries named in this document (tags omitted). Residues count along the entry.
UniProt Q01196, residues 106-453: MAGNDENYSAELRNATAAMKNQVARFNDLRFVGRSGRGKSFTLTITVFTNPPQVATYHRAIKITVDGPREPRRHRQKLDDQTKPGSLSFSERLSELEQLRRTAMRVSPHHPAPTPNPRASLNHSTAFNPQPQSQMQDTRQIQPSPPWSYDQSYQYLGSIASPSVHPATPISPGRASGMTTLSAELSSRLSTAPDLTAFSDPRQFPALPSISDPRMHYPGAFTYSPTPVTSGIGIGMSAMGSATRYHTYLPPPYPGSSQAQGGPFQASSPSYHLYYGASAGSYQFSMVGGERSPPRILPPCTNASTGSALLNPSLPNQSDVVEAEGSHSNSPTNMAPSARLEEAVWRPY
UniProt Q9UD57: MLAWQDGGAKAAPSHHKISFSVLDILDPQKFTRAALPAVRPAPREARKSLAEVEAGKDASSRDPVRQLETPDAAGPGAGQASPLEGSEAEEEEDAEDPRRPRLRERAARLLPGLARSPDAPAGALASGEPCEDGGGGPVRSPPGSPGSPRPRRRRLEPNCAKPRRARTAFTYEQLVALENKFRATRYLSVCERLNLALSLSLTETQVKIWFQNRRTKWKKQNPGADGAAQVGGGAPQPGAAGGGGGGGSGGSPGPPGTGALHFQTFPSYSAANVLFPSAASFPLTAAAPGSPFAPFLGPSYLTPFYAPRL

Biological target: T1, mOGT-HaloTag fusion protein (mitochondrial O-GlcNAc transferase, full-length, with C-terminal HaloTag) (human) (UniProt O15294)
T1 sequence: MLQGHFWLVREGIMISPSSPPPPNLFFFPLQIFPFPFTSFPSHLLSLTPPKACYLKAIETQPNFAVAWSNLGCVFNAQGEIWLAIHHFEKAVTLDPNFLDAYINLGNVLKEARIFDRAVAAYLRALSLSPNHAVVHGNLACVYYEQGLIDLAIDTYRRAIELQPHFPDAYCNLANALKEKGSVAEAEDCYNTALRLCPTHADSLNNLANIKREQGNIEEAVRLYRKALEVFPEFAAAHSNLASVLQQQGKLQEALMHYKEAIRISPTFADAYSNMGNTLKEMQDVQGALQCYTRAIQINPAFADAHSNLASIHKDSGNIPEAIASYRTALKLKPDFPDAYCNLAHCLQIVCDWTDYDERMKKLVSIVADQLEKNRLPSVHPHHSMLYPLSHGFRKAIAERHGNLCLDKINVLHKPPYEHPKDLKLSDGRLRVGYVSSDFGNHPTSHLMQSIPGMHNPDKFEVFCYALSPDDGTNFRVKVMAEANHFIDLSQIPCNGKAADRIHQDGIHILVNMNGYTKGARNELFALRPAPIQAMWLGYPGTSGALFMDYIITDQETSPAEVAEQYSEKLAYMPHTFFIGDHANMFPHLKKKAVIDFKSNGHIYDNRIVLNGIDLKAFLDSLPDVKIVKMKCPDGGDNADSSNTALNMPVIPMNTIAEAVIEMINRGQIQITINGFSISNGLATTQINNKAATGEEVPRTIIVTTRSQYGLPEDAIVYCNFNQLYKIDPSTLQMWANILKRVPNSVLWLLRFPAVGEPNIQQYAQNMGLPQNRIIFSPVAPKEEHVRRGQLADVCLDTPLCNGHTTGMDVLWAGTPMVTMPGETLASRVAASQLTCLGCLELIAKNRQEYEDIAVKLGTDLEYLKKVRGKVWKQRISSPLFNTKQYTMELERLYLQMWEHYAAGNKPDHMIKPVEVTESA
Assay: affinity purification with mass spectrometry; mOGT-HaloTag covalently captured on HaloLink Resin from about 500 ug of mitochondria-enriched lysate of transfected breast cancer cells (co-transfected with ncOGT siRNA); binding buffer 100 mM Tris-HCl, 150 mM NaCl, 0.05% IGEPAL CA-630, pH 7.6, overnight at 4 °C; four washes; eluted proteins resolved by SDS-PAGE and identified by LC-MS/MS; HaloTag alone as negative control

Row | Substance | binding
1 | Isoform 2 of Chromodomain-helicase-DNA-binding protein 1 | binds
2 | Isoform 10 of Transcriptional repressor CTCFL | binds
3 | Isoform AML-1L of Runt-related transcription factor 1 (from UniProt Q01196-11 1-348) | binds
4 | NK1 transcription factor-related protein 2 (from UniProt Q9UD57 1-310) | binds

Results are given in words; binding and its absence hold for the method and conditions named. In cells and extracts the contact can be indirect. These calls come from enrichment with a bait or labelling near it, and not all partners need be listed. Where a sequence is shown, tags or fusion partners need not be part of it.
